Experimental data from PubChem BioAssay AID504444 (National Center for Advancing Translational Sciences (NCATS), 2011).
Among all 360,000 compounds or so, about 7,500 (2.1%) were called active. This list was built around the results that the source calls inconclusive (neither active nor inactive); the mix of calls is not that of the screen. Calls come from the whole dose curve; as a rule, active = well fitted inhibition curve with a large enough effect; inconclusive = small, poorly fitted or top-dose-only effect, or effect the other way; inactive = flat fitted curve, though single readings scatter. Potencies beside an inconclusive call are fits to weak or partial responses and may not hold up.

Test: Nrf2 qHTS screen for inhibitors; note: nearly all actives have a fitted effect of over 60% in size
Conditions: A549 ARE-Fluc reporter, luciferase luminescence, 18-24 h; activity change, negative = inhibition: at 46 µM (top of the series)
Procedure, shortened: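 Nrf2 function is reported as luminescence of an ARE-controlled luciferase in A549 cells. Compounds were tested at several concentrations, and a CellTiter-Fluor read on the same wells flagged cytotoxicity.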
% is set by controls: 0 for no effect and ±100 for the full control effect; potency is the fitted concentration of half-maximal effect.

| Structure (SMILES) | Potency | activity change, negative = inhibition |
| --- | --- | --- |
| CCN1CCN(c2cc(C)c3cc(NC(=S)N4CC(C)CC(C)C4)ccc3n2)CC1 (configuration not stated) | inconclusive: 0.058 µM [falling, full curve, poor fit] |  |
| Cc1ccc2oc(-c3ccc(Cl)c(NC(=O)c4ccc(-c5ccccc5[N+](=O)[O-])o4)c3)nc2c1 | inconclusive: 23.1 µM [activator, single point] |  |
| O=C(Oc1ccc(Cl)cc1)c1ccc2nccnc2c1 | inactive |  |
| O=c1c2oc3ccccc3c2n(Cc2ccccc2)c(=O)n1Cc1ccc2c(c1)OCO2 | inactive |  |
| O=C(NNC(=O)c1ccc(Oc2ccc(C3SCCS3)cc2)o1)c1ccc(Cl)cc1 | inconclusive: 3.66 µM [falling, partial curve] |  |
| CCOC(=O)c1cccc(Nc2ccc3cc(S(=O)(=O)N4CCCCC4)ccc3n2)c1 | inconclusive: 29.1 µM [falling, single point] |  |
| CCSc1nnc(-c2ccc(C)cc2)c2ccccc12 | inconclusive: 29.1 µM [falling, single point] |  |
| Cc1ccc2nc(C)/c(=N\O)c(C)nc2c1 | inconclusive: 13 µM [activator, partial curve] |  |
| Cc1ccc2c(c1)C1OCCC1C1N2C(=O)C2C(C(=O)O)C3C=CC21O3 (configuration not stated) | inconclusive: 7.31 µM [falling, single point] |  |
| CCOC(=O)C1CCCN(C(=O)c2ccc3c(c2)N(Cc2ccccc2)C(=O)c2ccccc2S3=O)C1 (configuration not stated) | inconclusive: 1.3 µM [activator, partial curve] |  |
| COC(=O)c1ccccc1NC(=O)/C=C/c1ccco1 | inconclusive: 20.6 µM [activator, single point] |  |
| O=C(Nc1ccc(S(=O)(=O)NCc2cccnc2)cc1)c1ccco1 | inconclusive: 18.4 µM [falling, partial curve, poor fit] |  |
| Cc1cc(C)c(NC(=S)NCCCSC2CCCCC2)c(C)c1 | active: 20.6 µM |  |
| Cc1ccc(S(=O)(=O)NCc2ccc(N3CCN(C(=O)OC(C)(C)C)CC3)cc2)cc1 | active: 25.9 µM |  |
| Cc1cc(C(=O)COc2cccc([N+](=O)[O-])c2)c(C)n1C1CC1 | inactive |  |
| Cc1ccc(-c2noc(-c3ccoc3C)n2)cc1 | inconclusive: 29.1 µM [activator, single point] |  |
| COc1cccc(CNC(=O)c2ccc(NC(=O)N3CCCCc4ccccc43)cc2)c1 | inconclusive: 29.1 µM [falling, single point] |  |
| Cc1ccc(C(=O)N2CCCC(C(=O)Nc3cccc(-c4ccc(F)cc4)c3)C2)cn1 (configuration not stated) | inconclusive: 29.1 µM [falling, single point] |  |
| CCOC(=O)N1CCN(C(=O)c2ccc(Cn3c(=S)[nH]c4cc5c(cc4c3=O)OCO5)cc2)CC1 | active: 9.2 µM |  |
| COc1ccc(C(=O)Nc2cccc(C(=O)N3CCCC3)c2)cc1 | inactive |  |
| COc1ccc(S(=O)(=O)c2c(SC)nn(Cc3ccccc3C)c2NC(C)=O)cc1 | inconclusive: 23.1 µM [activator, partial curve, poor fit] |  |
| Cc1ccc(OCC(=O)Nc2cccc(-c3nnc(-c4ccccc4)o3)c2)cc1 | inactive |  |
| CC(NC(=O)CCc1nnc(-c2ccc(-c3ccccc3)cc2)o1)c1nccs1 (configuration not stated) | inconclusive: 1.3 µM [falling, partial curve, poor fit] |  |

| Structure (SMILES) | Potency | activity change, negative = inhibition |
| --- | --- | --- |
| CCOc1ccc(-n2c(-c3ccc(OC)cc3)c[n+]3c2CCCCC3)cc1 | active: 2.59 µM |  |
| O=C(NC1CCCC1)c1ccc(COc2ccccc2Br)o1 | inconclusive: 29.1 µM [falling, single point] |  |
| C[n+]1ccccc1/C=C/c1cc(Br)ccc1O | inconclusive: 23.1 µM [falling, single point] |  |
| NC(=O)c1cc(S(=O)(=O)NCC2CCC(C(=O)Nc3ccc(Cl)cc3)CC2)cs1 (configuration not stated) | inconclusive: 2.31 µM [falling, partial curve, poor fit] |  |
| O=C(OCC(=O)N1CCOCC1)c1ccccc1Br | inconclusive: 23.1 µM [activator, single point] |  |
| CC(=O)c1cccc(N(CC(=O)NC2CCCC2)C(=O)c2ccc(C)s2)c1 | inconclusive: 20.6 µM [activator, single point] |  |
| O=C(NCC(=O)N(Cc1cccs1)C(C(=O)NC1CCCCC1)c1ccco1)c1cccs1 (configuration not stated) | inconclusive: 29.1 µM [falling, single point] |  |
| Cc1cn(COC/C=C/c2ccccc2)c(=O)[nH]c1=O | inactive |  |
| N=C1/C(=C\c2ccc(-c3cccc(C(=O)O)c3)o2)C(=O)N=C2SC=C(c3ccccc3)N12 | inactive |  |
| Cc1ccc(N(CC(=O)N/N=C/c2ccc(OC3CSC3)cc2)S(=O)(=O)c2ccccc2)cc1 | inconclusive: 6.51 µM [falling, partial curve, poor fit] |  |
| CCOC(=O)C(=CNc1ccc(NC2=NCC(C)(C)S2)cc1)C(=O)OCC | inconclusive: 18.4 µM [falling, partial curve] |  |
| COc1cccc(/C=N/Nc2nc(Nc3ccccc3)nc(-n3nc(C)cc3C)n2)c1O | inconclusive: 29.1 µM [falling, single point] |  |
| COC(=O)c1ccsc1NC(=O)CCc1ccccc1 | inconclusive: 2.06 µM [activator, partial curve] |  |
| O=Cc1cn(Cc2ccccc2)nc1-c1cccnc1 | inconclusive: 2.91 µM [falling, partial curve] |  |
| O=C(c1cc([N+](=O)[O-])ccc1Cl)N1c2ccccc2Sc2ccccc21 | inconclusive: 2.91 µM [falling, partial curve, poor fit] |  |
| Cc1ccc(-c2nc(SCC(=O)NCC3CCCO3)c(-c3ccc(C)cc3)[nH]2)cc1 (configuration not stated) | inactive |  |
| Cn1cc(CN(Cc2ccccc2)C[C@@H]2CCC(=O)N2)c(-c2ccccc2F)n1 | inconclusive: 0.082 µM [falling, full curve, poor fit] |  |
| CCc1cccc(NC(=S)N2CCC(c3ccccc3)C2)c1 (configuration not stated) | inconclusive: 29.1 µM [falling, single point] |  |
| CCN(c1ccc(NC(=O)c2ccc(N3CCCC3=O)cc2)cc1)C(C)C | active: 9.2 µM |  |
| CCOC(=O)c1c(C)oc2ccc(NS(=O)(=O)c3cccs3)cc12 | inconclusive: 23.1 µM [falling, partial curve, poor fit] |  |
| Cc1sc(NC(=O)c2ccco2)c(C(c2cccnc2)N2CCN(c3ccc(F)cc3)CC2)c1C (configuration not stated) | active: 14.6 µM |  |
| CC1Sc2ccc(C(=O)N3CCCC(C(F)(F)F)C3)cc2NC1=O (configuration not stated) | inconclusive: 29.1 µM [falling, single point] |  |
| CC(=O)Nc1ccc(C(=O)CN2C(=O)CSC2=O)cc1 | inactive |  |

| Structure (SMILES) | Potency | activity change, negative = inhibition |
| --- | --- | --- |
| Cc1cc(C)cc(-n2ccnc(NCCc3ccccc3)c2=O)c1 | inconclusive: 10.3 µM [activator, partial curve] |  |
| CCOC(=O)c1cc2c(=O)n3ccccc3nc2n(CC(C)C)c1=NC(=O)COc1ccc(Cl)cc1 |  | inactive: 20.8% [at 9.27 µM] |
| Cc1c(C(=O)OCC(=O)Nc2cccc(S(N)(=O)=O)c2)oc2c1ccc1ccccc12 | inconclusive: 13 µM [falling, single point] |  |
| S=c1[nH]nc(-c2cc(-c3ccccc3)n[nH]2)n1/N=C/c1cccs1 | inconclusive: 32.6 µM [falling, partial curve, poor fit] |  |
| CCc1ccc(OCC(=O)NNC(=O)CSc2ncnc3sc(C)c(C)c23)cc1 | inconclusive: 7.31 µM [falling, partial curve, poor fit] |  |
| COc1ccccc1CNC(=O)C1(C)Oc2cccnc2NC1=O (configuration not stated) | inconclusive: 0.291 µM [falling, full curve, poor fit] |  |
| Cc1cc(C)c(S(=O)(=O)N2CCN(S(=O)(=O)N3CCC(C)CC3)CC2)c(C)c1 | inactive |  |
| COc1cc(C(=O)N/N=C/c2ccc3c(c2)c2ccccc2n3C)ccc1O | inactive |  |
| CCCC(=O)N1N=C(c2ccccc2)CC1c1cn(C)c2ccccc12 (configuration not stated) | inactive |  |
| COc1ccc(-c2nn(C)c(=O)c3ccccc23)cc1NC(=O)COc1ccccc1 | inconclusive: 20.6 µM [falling, single point] |  |
| CC1CCCCN1c1c(S(=O)(=O)c2ccc(Cl)cc2)cnc2ccccc12 (configuration not stated) | inconclusive: 20.6 µM [falling, single point] |  |
| CCC(=O)Nc1ccc(CC)cc1-c1nc2ccccc2n(CC(=O)Nc2cccc(OC)c2)c1=O | inactive |  |
| O=C1CCCCC1Sc1nnc(-c2ccc3c(c2)OCO3)o1 (configuration not stated) | inconclusive: 29.1 µM [falling, single point] |  |
| c1ccc(-c2ccc3c(c2)NC(C2Nc4cc(-c5ccccc5)ccc4O2)O3)cc1 (configuration not stated) | inconclusive: 0.206 µM [falling, full curve, poor fit] |  |
| C/C(=C\c1ccccc1F)C(=O)c1c(C)cc(C)[nH]c1=O | inactive |  |
| COc1ccc(/C=N/NC(=O)c2ccc(NC(=O)c3ccccc3Br)cc2)cc1 | inconclusive: 10.3 µM [falling, partial curve] |  |
| O=C(COc1ccccc1Cl)Nc1ccccc1C(=O)Nc1cccc(C(=O)O)c1 | inconclusive: 5.8 µM [activator, full curve, poor fit] |  |
| CCOC(=O)c1c(NC(=O)COC)sc2c1CCCC2 | inactive |  |
| Cc1ccc(NC(=O)C2CC(=O)N(c3ccccc3Cl)C2)cc1S(=O)(=O)N1CCOCC1 (configuration not stated) | inconclusive: 18.4 µM [falling, partial curve, poor fit] |  |
| Cc1cccc(NC(=O)c2ccccc2O)c1C | inconclusive: 29.1 µM [falling, single point] |  |
| O=C(COc1ccc(-c2ccccc2)cc1)N1CCCC1 | inactive |  |

Single entries from the entries so far.
`Cc1cc(C)c(S(=O)(=O)N2CCN(S(=O)(=O)N3CCC(C)CC3)CC2)c(C)c1` | Potency: inactive
`COc1cc(C(=O)N/N=C/c2ccc3c(c2)c2ccccc2n3C)ccc1O` | Potency: inactive
`c1ccc(-c2ccc3c(c2)NC(C2Nc4cc(-c5ccccc5)ccc4O2)O3)cc1` (configuration not stated) | Potency: inconclusive: 0.206 µM [falling, full curve, poor fit]
